# Some of the results follow. Repeats are few or missing, and single values can be far off.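 Imaging used 1,536-well plates; nuclei positive for cleaved PARP by antibody were divided by total DNA-stained nuclei to yield the apoptosis fraction. Doses for screening kept most cells viable, and cell lines differ markedly in resting and induced cleaved-PARP levels.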
# Columns and labels:
# Assay in all cases: cleaved PARP positive nuclei fraction relative to DMSO control; melanoma cells; higher = more apoptosis
# Conditions in all cases: library dose: low library concentration; 72 h
# CBRC034 = system: CBRC034 (line from a melanoma biopsy)
# COLO792 = system: COLO792
# COLO800 = system: COLO800
# COLO829 = system: COLO829
# G361 = system: G361
# IPC-298 = system: IPC-298
# IST-MEL1 = system: IST-MEL1
# LB2518-MEL = system: LB2518-MEL
# LOXIMVI = system: LOXIMVI
# MEL-HO = system: MEL-HO
# MZ2-MEL = system: MZ2-MEL
# MeWo = system: MeWo
# RPMI7951 = system: RPMI7951
# RVH-421 = system: RVH-421
# SkMel28 = system: SkMel28
# SkMel2 = system: SkMel2
# SkMel30 = system: SkMel30
# UACC62 = system: UACC62
Structure (SMILES),cleaved PARP positive nuclei fraction (CBRC034) [%],cleaved PARP positive nuclei fraction (COLO792) [%],cleaved PARP positive nuclei fraction (COLO800) [%],cleaved PARP positive nuclei fraction (COLO829) [%],cleaved PARP positive nuclei fraction (G361) [%],cleaved PARP positive nuclei fraction (IPC-298) [%],cleaved PARP positive nuclei fraction (IST-MEL1) [%],cleaved PARP positive nuclei fraction (LB2518-MEL) [%],cleaved PARP positive nuclei fraction (LOXIMVI) [%],cleaved PARP positive nuclei fraction (MEL-HO) [%],cleaved PARP positive nuclei fraction (MZ2-MEL) [%],cleaved PARP positive nuclei fraction (MeWo) [%],cleaved PARP positive nuclei fraction (RPMI7951) [%],cleaved PARP positive nuclei fraction (RVH-421) [%],cleaved PARP positive nuclei fraction (SkMel28) [%],cleaved PARP positive nuclei fraction (SkMel2) [%],cleaved PARP positive nuclei fraction (SkMel30) [%],cleaved PARP positive nuclei fraction (UACC62) [%]
"CC[C@]1(O)C[C@H]2CN(CCc3c([nH]c4ccccc34)[C@@](C(=O)OC)(c3cc4c(cc3OC)N(C=O)[C@H]3[C@@](O)(C(=O)OC)[C@H](OC(C)=O)[C@]5(CC)C=CCN6CC[C@]43[C@@H]65)C2)C1 [vincristine] + Nc1ncn([C@H]2C[C@H](O)[C@@H](CO)O2)c(=O)n1 [decitabine] (first compound 0.0001 µM, partner dose 0.1 µM)",91.2,88.1,94.6,64.5,147,63.2,35.6,63.9,90.1,146,90.3,182,208,135,130,72.2,219,196
"N#CC[C@H](C1CCCC1)n1cc(-c2ncnc3[nH]ccc23)cn1 [ruxolitinib] + COc1ccc(Cl)c(Nc2nc3ccccc3nc2NS(=O)(=O)c2cccc(NC(=O)C(C)(C)N)c2)c1 [XL147] (first compound 1 µM, partner dose 0.8 µM)",121,85.5,24.2,80.1,133,174,124,131,65.4,129,152,102,36.2,30.1,41.3,123,22.3,58.2
"COc1cc([C@@H]2c3cc4c(cc3[C@@H](O[C@@H]3O[C@@H]5CO[C@@H](C)O[C@H]5[C@H](O)[C@H]3O)[C@H]3COC(=O)[C@H]23)OCO4)cc(OC)c1O [etoposide] + COc1ccc(C2=N[C@@H](c3ccc(Cl)cc3)[C@@H](c3ccc(Cl)cc3)N2C(=O)N2CCNC(=O)C2)c(OC(C)C)c1 [Nutlin-3] (first compound 0.02 µM, partner dose 0.1 µM)",128,92.6,187,181,84.6,88.7,79.6,94.8,158,125,41.4,103,109,178,83.4,151,112,56
"N#CC[C@H](C1CCCC1)n1cc(-c2ncnc3[nH]ccc23)cn1 [ruxolitinib] + CC[C@]1(O)C[C@H]2CN(CCc3c([nH]c4ccccc34)[C@@](C(=O)OC)(c3cc4c(cc3OC)N(C=O)[C@H]3[C@@](O)(C(=O)OC)[C@H](OC(C)=O)[C@]5(CC)C=CCN6CC[C@]43[C@@H]65)C2)C1 [vincristine] (first compound 1 µM, partner dose 0.0001 µM)",54.5,129,87.2,60,70.7,77.9,126,79.9,172,164,79.8,172,134,120,93.4,121,102,118
"CC[C@]1(O)C[C@H]2CN(CCc3c([nH]c4ccccc34)[C@@](C(=O)OC)(c3cc4c(cc3OC)N(C=O)[C@H]3[C@@](O)(C(=O)OC)[C@H](OC(C)=O)[C@]5(CC)C=CCN6CC[C@]43[C@@H]65)C2)C1 [vincristine] + CCCCCCCCc1ccc(CCC(N)(CO)CO)cc1 [fingolimod] (first compound 0.0001 µM, partner dose 2 µM)",98.9,99,137,141,98.3,41.2,136,111,92.1,263,60.5,79.6,314,183,240,75.9,246,162
"Cc1cc(Nc2cc(N3CCN(C)CC3)nc(Sc3ccc(NC(=O)C4CC4)cc3)n2)n[nH]1 [Tozasertib] + CCCS(=O)(=O)Nc1ccc(F)c(C(=O)c2c[nH]c3ncc(Cl)cc23)c1F [PLX4720] (first compound 0.006 µM, partner dose 0.08 µM)",32.5,162,147,94.7,95.1,131,77.2,115,236,136,101,97.5,75.1,72.1,86.1,107,117,1270
"Cc1cn(-c2cc(NC(=O)c3ccc(C)c(Nc4nccc(-c5cccnc5)n4)c3)cc(C(F)(F)F)c2)cn1 [nilotinib] + Cn1sc(=O)n(Cc2ccccc2)c1=O [TDZD-8] (first compound 0.2 µM, partner dose 0.4 µM)",69.7,79.2,242,86.8,129,83.6,62.6,194,113,60.4,63.6,111,62.5,36.5,109,85.9,87.2,140
"Cc1cn(-c2cc(NC(=O)c3ccc(C)c(Nc4nccc(-c5cccnc5)n4)c3)cc(C(F)(F)F)c2)cn1 [nilotinib] + C=C(c1ccc(C(=O)O)cc1)c1cc2c(cc1C)C(C)(C)CCC2(C)C [Bexarotene] (first compound 0.2 µM, partner dose 2 µM)",40.5,64.6,112,108,171,43.2,136,162,120,247,54.3,297,99.5,234,55.2,108,54.3,204
"O=C(/C=C/c1cccnc1)NCCCCC1CCN(C(=O)c2ccccc2)CC1 + COc1ccc(Cl)c(Nc2nc3ccccc3nc2NS(=O)(=O)c2cccc(NC(=O)C(C)(C)N)c2)c1 [XL147] (first compound 0.01 µM, partner dose 0.8 µM)",1980,764,110,391,6520,99.2,100,712,147,87.2,454,84.7,36,185,244,4790,59.7,90.9
"Cc1cc(Nc2cc(N3CCN(C)CC3)nc(Sc3ccc(NC(=O)C4CC4)cc3)n2)n[nH]1 [Tozasertib] + CC(C)C[C@H](NC(=O)[C@H](Cc1ccccc1)NC(=O)c1cnccn1)B(O)O [Bortezomib] (first compound 0.006 µM, partner dose 0.001 µM)",39.7,94.7,97.4,184,480,63.9,131,86.3,69.4,61.2,87,113,153,124,75.5,59.2,58.1,315
"Cc1ccc(Nc2nccc(N(C)c3ccc4c(C)n(C)nc4c3)n2)cc1S(N)(=O)=O [Pazopanib] + O=C(O)c1ccc2c(c1)nc(Nc1cccc(Cl)c1)c1ccncc12 [CX4945] (first compound 0.4 µM, partner dose 0.4 µM)",96.7,128,81.6,182,111,345,232,120,21.8,59.9,143,117,138,64.5,65.9,59.4,71.8,49.5
"Cc1ccc(Nc2nccc(N(C)c3ccc4c(C)n(C)nc4c3)n2)cc1S(N)(=O)=O [Pazopanib] + C[C@]1(O)C[C@@H](c2nc(-c3ccc4ccc(-c5ccccc5)nc4c3)c3c(N)nccn32)C1 [OSI906] (first compound 0.4 µM, partner dose 0.4 µM)",69.9,71.4,108,155,86.9,68.4,207,26.3,95.5,83.9,36.8,45.9,130,59.3,41.3,54.7,333,10.9
"N#CC[C@H](C1CCCC1)n1cc(-c2ncnc3[nH]ccc23)cn1 [ruxolitinib] + CCCCCCCCCCCCCCCCCCOP(=O)([O-])OC1CC[N+](C)(C)CC1 [Perifosine] (first compound 1 µM, partner dose 0.4 µM)",31.3,118,142,72.8,67.4,123,235,78.7,17.2,146,86.8,76.4,127,159,70.4,67.7,76.9,17.7
"O=C(Nc1cc(C(F)(F)F)cc(C(F)(F)F)c1)c1cc(Cl)ccc1O + O=C(/C=C/c1cccnc1)NCCCCC1CCN(C(=O)c2ccccc2)CC1 [FK866] (first compound 0.016 µM, partner dose 0.01 µM)",303,185,69.1,136,1450,84,77.3,97.6,137,357,149,197,50.4,82.8,79.9,281,28.1,109
"Cc1cc(Nc2cc(N3CCN(C)CC3)nc(Sc3ccc(NC(=O)C4CC4)cc3)n2)n[nH]1 [Tozasertib] + CC(=O)O[C@@]12CO[C@@H]1C[C@H](O)[C@@]1(C)C(=O)[C@H](O)C3=C(C)[C@@H](OC(=O)[C@H](O)[C@@H](NC(=O)OC(C)(C)C)c4ccccc4)C[C@@](O)([C@@H](OC(=O)c4ccccc4)[C@H]21)C3(C)C [Docetaxel] (first compound 0.006 µM, partner dose 0.0001 µM)",97.2,215,194,274,498,313,148,72.8,190,525,273,630,656,199,127,305,442,105
"O=c1[nH]nc(Sc2ncc([N+](=O)[O-])s2)n1-c1ccc2c(c1)OCCO2 + O=C(O)[C@@H]1[O][Sb](=[O])([O][Sb]2(=[O])[O][C@H]([C@H](O)CO)[C@H](O)[C@H](C(=O)O)[O]2)[O][C@H]([C@H](O)CO)[C@@H]1O [stibogluconate] (first compound 0.2 µM, partner dose 2 µM)",62.4,55.9,109,167,93.3,81.4,33,79.8,53.4,51.5,113,81.4,141,57.5,152,67.5,66.5,43.1

# Pulled one by one from the entries so far:
Structure (SMILES),cleaved PARP positive nuclei fraction (CBRC034) [%],cleaved PARP positive nuclei fraction (COLO792) [%],cleaved PARP positive nuclei fraction (COLO800) [%],cleaved PARP positive nuclei fraction (COLO829) [%],cleaved PARP positive nuclei fraction (G361) [%],cleaved PARP positive nuclei fraction (IPC-298) [%],cleaved PARP positive nuclei fraction (IST-MEL1) [%],cleaved PARP positive nuclei fraction (LB2518-MEL) [%],cleaved PARP positive nuclei fraction (LOXIMVI) [%],cleaved PARP positive nuclei fraction (MEL-HO) [%],cleaved PARP positive nuclei fraction (MZ2-MEL) [%],cleaved PARP positive nuclei fraction (MeWo) [%],cleaved PARP positive nuclei fraction (RPMI7951) [%],cleaved PARP positive nuclei fraction (RVH-421) [%],cleaved PARP positive nuclei fraction (SkMel28) [%],cleaved PARP positive nuclei fraction (SkMel2) [%],cleaved PARP positive nuclei fraction (SkMel30) [%],cleaved PARP positive nuclei fraction (UACC62) [%]
"Cc1cn(-c2cc(NC(=O)c3ccc(C)c(Nc4nccc(-c5cccnc5)n4)c3)cc(C(F)(F)F)c2)cn1 [nilotinib] + C=C(c1ccc(C(=O)O)cc1)c1cc2c(cc1C)C(C)(C)CCC2(C)C [Bexarotene] (first compound 0.2 µM, partner dose 2 µM)",40.5,64.6,112,108,171,43.2,136,162,120,247,54.3,297,99.5,234,55.2,108,54.3,204
"O=C(Nc1cc(C(F)(F)F)cc(C(F)(F)F)c1)c1cc(Cl)ccc1O + O=C(/C=C/c1cccnc1)NCCCCC1CCN(C(=O)c2ccccc2)CC1 [FK866] (first compound 0.016 µM, partner dose 0.01 µM)",303,185,69.1,136,1450,84,77.3,97.6,137,357,149,197,50.4,82.8,79.9,281,28.1,109
